Laboratory results: PubChem BioAssay AID1259306 (Sanger Institute, 2017)

Aim: 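Kinase-wide siRNA screen for partners of targeted drugs in colorectal cancer cells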 (primary screen)
System: human SNU-C5 colorectal cancer cells
Reagent: siRNA pool against human genes
Treatment: DMSO vehicle alone, or one anchor drug: BYL719 at 1 µM, cetuximab at 5 µg/ml or trametinib at 10 nM, given 24 h into the assay
Read-out: 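Replicate-averaged viability against non-targeting pool control, given as fraction and robust z-score; separate synergy scores for BYL719, cetuximab and trametinib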
Scale: robust z-score, knock-down alone and viability, knock-down alone: higher = more viable cells; synergy score with BYL719: higher = stronger synthetic lethality with BYL719; synergy score with cetuximab: higher = stronger synthetic lethality with cetuximab; synergy score with trametinib: higher = stronger synthetic lethality with trametinib
Active means: 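Essential if knock-down without drug gives a robust z-score under -3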
Calls: active = essential (knock-down alone); inactive = no change alone
The whole screen tested 794 reagents; below is a part drawn at random. 11 of them (1.4%) were called active. 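Calls reflect knock-down alone; synergy scores play no part, so knock-downs synergising with a drug can be called no change.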 A number with no mark means an inactive call. Viability is capped at 1. Reagent sequences are not shown. Not stated in the record: the amount of reagent, the time to read-out.

no.	target gene	robust z-score, knock-down alone	viability, knock-down alone	synergy score with BYL719	synergy score with cetuximab	synergy score with trametinib
1	PRKCSH	0.504	0.933	0.0954	0.037	0.0525
2	PRKG1	0.989	1	0.16	0.217	-0.0381
3	AK5	0.119	0.88	0.0415	0.149	-0.036
4	TNK1	-0.0612	0.855	-0.0133	0.0187	-0.0627
5	MAP3K12	-0.212	0.835	-0.0846	-0.165	-0.181
6	FOXP1	0.0369	0.869	0.106	0.0168	-0.0318
7	MECOM	-0.321	0.819	-0.091	-0.17	-0.127
8	MYLK2	-3.96 (active)	0.318	-0.0867	-0.176	-0.227
9	HIPK3	-1.16	0.704	-0.0952	0.0423	-0.0366
10	TRIB1	-0.659	0.773	-0.075	-0.227	-0.115
11	MAPK14	-0.402	0.808	-0.133	-0.0633	-0.0783
12	IKBKG	0.952	0.995	0.142	0.233	0.115
